# Source: PubChem BioAssay AID330 (DTP/NCI, 2004)
# The list is a part of this screen's results and no random one: it is rich in T/C values a quarter to a half above the control, in often repeated tests (any T/C) and in doses without a T/C. Other doses and runs of a compound stand elsewhere. T/C is the treated group as % of the vehicle group. Some doses have a count of surviving animals in place of a T/C: the source files T/C as zero there, which appears to mark a toxic dose or a test without result, not a measured value. Some doses without a T/C left all or most animals alive at the check, yet need not have been tolerated: survival well below the control is almost never listed, so the zero probably covers shortened survival too. Survivors were counted at the toxicity check, usually on the fifth day, unless a day is given; later deaths do not show. Schedule codes are those of the source, read here as Q, the interval in days (D) or hours (H), X, the number of doses. Where survival is the endpoint, this PubChem deposit counts one and a half times the control or more as active, and values a quarter to a half above the control carry no call in these data; other NCI protocols may use other cut-offs. Signs of the kind (2×) stand for listed records that agree. Some T/C values are followed by the survivors on the day toxicity was checked, most often the fifth; without a count, all were alive then.
# Test system: P388 leukemia ip, CD2F1 mice, survival T/C
# Experiment: NCI In Vivo Anticancer Drug Screen. Data for tumor model P388 Leukemia (intraperitoneal) in CD2F1 (CDF1) mice
# Conditions: T/C endpoint: median survival time, higher T/C = longer survival
# [1] = dose: 60.0 mg/kg/injection, schedule: Q01DX005 (ip), vehicle: Klucel (hydroxypropylcellulose) (HPC)
# [2] = dose: 120.0 mg/kg/injection, schedule: Q01DX005 (ip), vehicle: Klucel (hydroxypropylcellulose) (HPC)
# [3] = dose: 240.0 mg/kg/injection, schedule: Q01DX005 (ip), vehicle: saline with Tween-80
# [4] = dose: 100.0 mg/kg/injection, schedule: Q01DX009 (ip), vehicle: saline
# [5] = dose: 100.0 mg/kg/injection, schedule: Q01DX005 (ip), vehicle: saline with Tween-80
# [6] = dose: 200.0 mg/kg/injection, schedule: Q01DX005 (ip), vehicle: saline with Tween-80
# [7] = dose: 200.0 mg/kg/injection, schedule: Q01DX005 (ip), vehicle: saline
# [8] = dose: 200.0 mg/kg/injection, schedule: Q04DX003 (ip), vehicle: other
# [9] = dose: 200.0 mg/kg/injection, schedule: Q01DX005 (ip), vehicle: Klucel (hydroxypropylcellulose) (HPC)
# [10] = dose: 200.0 mg/kg/injection, schedule: Q01DX009 (ip), vehicle: saline with Tween-80
# [11] = dose: 200.0 mg/kg/injection, schedule: Q01DX009 (ip), vehicle: Klucel (hydroxypropylcellulose) (HPC)
# [12] = dose: 50.0 mg/kg/injection, schedule: Q01DX009 (ip), vehicle: saline
# [13] = dose: 400.0 mg/kg/injection, schedule: Q04DX003 (ip), vehicle: saline with Tween-80
# [14] = dose: 200.0 mg/kg/injection, schedule: Q01DX009 (ip), vehicle: saline
# [15] = dose: 25.0 mg/kg/injection, schedule: Q01DX009 (ip), vehicle: Klucel (hydroxypropylcellulose) (HPC)
# [16] = dose: 100.0 mg/kg/injection, schedule: Q01DX009 (ip), vehicle: saline with Tween-80
# [17] = dose: 50.0 mg/kg/injection, schedule: Q01DX005 (ip), vehicle: saline
# [18] = dose: 50.0 mg/kg/injection, schedule: Q01DX009 (ip), vehicle: Klucel (hydroxypropylcellulose) (HPC)
# [19] = dose: 100.0 mg/kg/injection, schedule: Q01DX009 (ip), vehicle: Klucel (hydroxypropylcellulose) (HPC)
smiles,measurement,setting,value
O=C(CCc1ccc(O)cc1)c1c(O)cc(O)cc1O,survivor count,"dose: 400.0 mg/kg/injection, schedule: Q01DX009 (ip), vehicle: saline + alcohol",4 of 6
CCOc1c(N=Nc2ccc([N+](=O)[O-])cc2)c(C)nn1C(=S)SC,survivor count,"dose: 15.0 mg/kg/injection, schedule: Q01DX005 (ip), vehicle: Klucel (hydroxypropylcellulose) (HPC)",6 of 6
same,survivor count,"dose: 30.0 mg/kg/injection, schedule: Q01DX005 (ip), vehicle: Klucel (hydroxypropylcellulose) (HPC)",6 of 6
same,survivor count,[1],5 of 6
same,survivor count,[2],6 of 6
CN(C)CCCC1(O)c2ccccc2Sc2cc(Cl)ccc21 (stereo not drawn),survivor count,[3],6 of 6
Cc1ccc(N2C(=O)C(C)SC2=S)cc1Cl (stereo not drawn),survivor count,[4],1 of 6
CC(=O)C1C(=O)C(=O)N(c2ccccc2[N+](=O)[O-])C1=O (stereo not drawn),survivor count,[5],3 of 6
same,survivor count,[6],0 of 6
CC1CCC2N(C1)CC1C3(O)CC45OC6(O)C(O)CCC4(C)C6CCC5C3(O)CC(O)C1(O)C2(C)O (stereo not drawn),survivor count,[7],2 of 6
O=C(NC(C(=O)O)C1CC(Cl)=NO1)OCc1ccc([N+](=O)[O-])cc1 (stereo not drawn),T/C,"dose: 25.0 mg/kg/injection, schedule: Q04DX003 (ip), vehicle: other",125 % of control
same,T/C,"dose: 50.0 mg/kg/injection, schedule: Q04DX003 (ip), vehicle: other",125 % of control
same,T/C,"dose: 100.0 mg/kg/injection, schedule: Q04DX003 (ip), vehicle: other",140 % of control
same,T/C,[8],140 % of control
NS(=O)(=O)c1cc([N+](=O)[O-])sc1SSc1sc([N+](=O)[O-])cc1S(N)(=O)=O,survivor count,"dose: 100.0 mg/kg/injection, schedule: Q01DX001 (ip), vehicle: saline with Tween-80",0 of 6
same,survivor count,"dose: 200.0 mg/kg/injection, schedule: Q01DX001 (ip), vehicle: saline with Tween-80",0 of 6
same,survivor count,"dose: 400.0 mg/kg/injection, schedule: Q01DX001 (ip), vehicle: saline with Tween-80",0 of 6
COC(=O)C1=COC(C)C2CN3CCc4cc(OC)c(OC)cc4C3CC12 (stereo not drawn),survivor count,"dose: 100.0 mg/kg/injection, schedule: Q04DX002 (ip), vehicle: saline with Tween-80",0 of 6
same,survivor count,"dose: 200.0 mg/kg/injection, schedule: Q04DX002 (ip), vehicle: saline with Tween-80",0 of 6
same,survivor count,"dose: 400.0 mg/kg/injection, schedule: Q04DX002 (ip), vehicle: saline with Tween-80",0 of 6
C#CC(C)C(C(C)=O)C(=O)c1ccccc1.[C-]#[O+].[C-]#[O+].[C-]#[O+].[C-]#[O+].[C-]#[O+].[C-]#[O+].[Co].[Co] (stereo not drawn),survivor count,"dose: 100.0 mg/kg/injection, schedule: Q01DX005 (ip), vehicle: Klucel (hydroxypropylcellulose) (HPC)",5 of 6
same,survivor count,[9],0 of 6
Nc1ccc2c(Cl)cc(Cl)cc2c1,survivor count,[10],2 of 6
CCCCCCCCCCCCCC[N+]1([O-])CCOCC1,survivor count,"dose: 200.0 mg/kg/injection, schedule: Q04DX002 (ip), vehicle: saline",3 of 6
same,survivor count,"dose: 400.0 mg/kg/injection, schedule: Q04DX002 (ip), vehicle: saline",0 of 6
N#CNC1=NC(c2ccccc2)CC=C1 (stereo not drawn),survivor count,[10],3 of 6
NNC(=O)CNc1ccc(F)c(Cl)c1,survivor count,[3],3 of 6
Nc1ccccc1OCCCn1cc(-c2ccc(Cl)c(Cl)c2)c(N)nc1=O,survivor count,[1],6 of 6
same,survivor count,[2],6 of 6
same,survivor count,"dose: 240.0 mg/kg/injection, schedule: Q01DX005 (ip), vehicle: Klucel (hydroxypropylcellulose) (HPC)",6 of 6
Cc1cc(C)c(SSc2nnnn2C)c(C)c1,survivor count,[11],0 of 6
O=C(CC(O)(C(F)(F)F)C(F)(F)F)c1cccs1,T/C,"dose: 200.0 mg/kg/injection, schedule: Q04DX003 (ip), vehicle: saline with Tween-80",125 % of control [5 of 6 alive]
O=C1CSCc2nc3ccccc3n21,survivor count,[12],6 of 6
CC(C)CNC1=CC(=O)c2ccccc2C1=O,survivor count,[13],1 of 6
CCC(=O)OC1CC2(C)C(=CC1=O)CCC1C2CCC2(C)C(OC(=O)CC)CCC12 (stereo not drawn),survivor count,[13],6 of 6
CC1(C)N=C(N)N=C(N)N1c1ccc(CCc2ccccc2)cc1,T/C,[12],127 % of control
same,survivor count,[4],2 of 6
same,survivor count,"dose: 150.0 mg/kg/injection, schedule: Q04DX003 (ip), vehicle: saline with Tween-80",0 of 6
same,survivor count,[14],0 of 6
same,survivor count,"dose: 400.0 mg/kg/injection, schedule: Q04DX003 (ip), vehicle: saline",2 of 6
O=[N+]([O-])c1cc2c(cc1S(=O)(=O)O)C1C(C3C2C2(Cl)C(Cl)=C(Cl)C3(Cl)C2(Cl)Cl)C2(Cl)C(Cl)=C(Cl)C1(Cl)C2(Cl)Cl (stereo not drawn),survivor count,[14],3 of 6
O=C1OC(=O)C2C3OC(C(Br)C3Br)C12 (stereo not drawn),survivor count,[9],2 of 5
C[N+](C)(CCCCCCOc1c(Br)cc(Br)cc1Br)Cc1ccc(Br)o1,survivor count,"dose: 6.25 mg/kg/injection, schedule: Q01DX009 (ip), vehicle: Klucel (hydroxypropylcellulose) (HPC)",3 of 6
same,survivor count,"dose: 12.5 mg/kg/injection, schedule: Q01DX009 (ip), vehicle: Klucel (hydroxypropylcellulose) (HPC)",2 of 6
same,survivor count,[15],0 of 6
O=C(Nc1cccc2cccnc12)C1=C(Nc2cccc3cccnc23)CCC1,survivor count,[16],6 of 6
C[CH2][Sn][CH2]C.O=C(CC(=O)c1ccccc1)c1ccccc1.O=C(CC(=O)c1ccccc1)c1ccccc1,survivor count,"dose: 200.0 mg/kg/injection, schedule: Q01DX001 (ip), vehicle: Klucel (hydroxypropylcellulose) (HPC)",6 of 6
C[N+](C)=NC1CCC(C(C)(C)C)CC1 (stereo not drawn),survivor count,[5],3 of 5
same,survivor count,[6],0 of 6
N#CC(C#N)C1C=C/C(=N\O)C1 (stereo not drawn),survivor count,[16],2 of 6
same,survivor count,[10],0 of 6
COc1nc(N2CCNCC2)nc2c1CCCC2,survivor count,"dose: 240.0 mg/kg/injection, schedule: Q01DX005 (ip), vehicle: saline",0 of 6
CS(=O)(=O)c1nc(N)c2nnn(C3OC(CO)C(O)C3O)c2n1 (stereo not drawn),T/C,"dose: 25.0 mg/kg/injection, schedule: Q01DX005 (ip), vehicle: saline",125 % of control
same,T/C,[17],138 % of control
same,T/C,"dose: 100.0 mg/kg/injection, schedule: Q01DX005 (ip), vehicle: saline",138 % of control (2×)
same,T/C,[7],138 % of control
same,T/C,"dose: 400.0 mg/kg/injection, schedule: Q01DX005 (ip), vehicle: saline",127 % of control
CC(C)C(N)C(=O)NC(C(=O)O)C(C)C (stereo not drawn),survivor count,[17],5 of 5
same,survivor count,[7],5 of 5
COC(CNC(=O)Nc1cccnc1)[CH2][Hg][Cl] (stereo not drawn),survivor count,"dose: 100.0 mg/kg/injection, schedule: Q04DX003 (ip), vehicle: saline with Tween-80",1 of 6
O=NN(CCCl)C(=O)NC1CCN(Cc2ccccc2)CC1,T/C,"dose: 6.25 mg/kg/injection, schedule: Q04DX003 (ip), vehicle: other",137 % of control
same,T/C,"dose: 6.25 mg/kg/injection, schedule: Q04DX003 (ip), vehicle: water",143 % of control
same,survivor count,"dose: 100.0 mg/kg/injection, schedule: Q04DX003 (ip), vehicle: water",6 of 6
same,survivor count,[8],6 of 6
CCOC(=O)Nc1nc2ccc(SC#N)cc2s1,survivor count,[18],6 of 6
same,survivor count,[19],6 of 6
same,survivor count,[11],0 of 6
CC(F)C(N)C(=O)O (stereo not drawn),T/C,[15],125 % of control
same,survivor count,[18],6 of 6
same,survivor count,[19],6 of 6
same,survivor count,[11],4 of 6
same,survivor count,[14],0 of 6
COC(=O)c1nc(N)nc(C(=O)OC)c1C(=O)c1cccs1,survivor count,[3],0 of 6
